Data on 1 molecule can be found in US20040248207A1 (UNIVERSITY COLLEGE LONDON, published 2004).

Amino acid sequences for entries named in this document (tags omitted). A change or cut given only in a name is not applied to a line headed by its entry.
UniProt P05943: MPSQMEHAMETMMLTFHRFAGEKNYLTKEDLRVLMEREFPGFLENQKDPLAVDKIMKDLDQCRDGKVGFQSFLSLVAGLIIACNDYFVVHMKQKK

Results are given in words; binding and its absence hold for the method and conditions named. In cells and extracts the contact can be indirect. Some binding calls cover weakened binding; strength is not graded here. Where a sequence is shown, tags or fusion partners need not be part of it.

The test deals with GFP-p11 fusion protein (rat) (UniProt P05943). The experiment in a line: GST pull-down on glutathione-sepharose beads, anti-GFP immunoblot. In general terms: Immunoblotting shows a protein as a band on a membrane.

Consider LVGEPLEDLDPFYSTHRTFMVLNKSRTISR (peptide, not shown: a dimerising Fc or GST) [GST-N3-2], for which the binding entry is listed as “binds”.
